No constants are given. Whether binding was seen depends on the method and setting. Binding seen in cells or lysates may run through a third protein. Some results given as binding are weak or reduced against the parent protein; the word gives no strength.
B1: TBK1, Q9UHD2 1-729 (protein)
chain: MQSTSNHLWLLSDILGQGATANVFRGRHKKTGDLFAIKVFNNISFLRPVDVQMREFEVLKKLNHKNIVKLFAIEEETTTRHKVLIMEFCPCGSLYTVLEEPSNAYGLPESEFLIVLRDVVGGMNHLRENGIVHRDIKPGNIMRVIGEDGQSVYKLTDFGAARELEDDEQFVSLYGTEEYLHPDMYERAVLRKDHQKKYGATVDLWSIGVTFYHAATGSLPFRPFEGPRRNKEVMYKIITGKPSGAISGVQKAENGPIDWSGDMPVSCSLSRGLQVLLTPVLANILEADQEKCWGFDQFFAETSDILHRMVIHVFSLQQMTAHKIYIHSYNTATIFHELVYKQTKIISSNQELIYEGRRLVLEPGRLAQHFPKTTEENPIFVVSREPLNTIGLIYEKISLPKVHPRYDLDGDASMAKAITGVVCYACRIASTLLLYQELMRKGIRWLIELIKDDYNETVHKKTEVVITLDFCIRNIEKTVKVYEKLMKINLEAAELGEISDIHTKLLRLSSSQGTIETSLQDIDSRLSPGGSLADAWAHQEGTHPKDRNVEKLQVLLNCMTEIYYQFKKDKAERRLAYNEEQIHKFDKQKLYYHATKAMTHFTDECVKKYEAFLNKSEEWIRKMLHLRKQLLSLTNQCFDIEEEVSKYQEYTNELQETLPQKMFTASSGIKHTMTPIYPSSNTLVEMTLGMKKLKEEMEGVVKELAENNHILERFGSLTMDGGLRNVDCL
B2: IRF3, Q14653 1-427 (protein)
chain: MGTPKPRILPWLVSQLDLGQLEGVAWVNKSRTRFRIPWKHGLRQDAQQEDFGIFQAWAEATGAYVPGRDKPDLPTWKRNFRSALNRKEGLRLAEDRSKDPHDPHKIYEFVNSGVGDFSQPDTSPDTNGGGSTSDTQEDILDELLGNMVLAPLPDPGPPSLAVAPEPCPQPLRSPSLDNPTPFPNLGPSENPLKRLLVPGEEWEFEVTAFYRGRQVFQQTISCPEGLRLVGSEVGDRTLPGWPVTLPDPGMSLTDRGVMSYVRHVLSCLGGGLALWRAGQWLWAQRLGHCHTYWAVSEELLPNSGHGPDGEVPKDKEGGVFDLGPFIVDLITFTEGSGRSPRYALWFCVGESWPQDQPWTKRLVMVKVVPTCLRALVEMARVGGASSLENTVDLHISNSHPLSLTSDQYKAYLQDLVEGMDFQGPGES

Assays:
Flag-STING, Q86WV6 = assay: co-IP; Flag-STING-THLE2 cells after OGD-rep (oxygen-glucose deprivation and reperfusion) treatment, with or without DMF; co-immunoprecipitation; conditions: remark: other sources report otherwise
STING, Q86WV6 = assay: co-IP; HEK293T cells transfected with the indicated plasmids for 12 h, then treated with or without DMF (50 µM) for 12 h; co-immunoprecipitation; conditions: remark: other sources report otherwise

| Binder | binding (Flag-STING, Q86WV6) | binding (STING, Q86WV6) |
| --- | --- | --- |
| B1 | binds | binds |
| B2 | binds | binds |

— paper PMC11773390
